# Data published in the supplement of paper PMC6411743.
# Chains of the proteins cited; added tags and fusions are not shown. Lines headed by an entry give the natural chain unless they say otherwise; changes in a name come on top.
# UniProt Q8IXK0: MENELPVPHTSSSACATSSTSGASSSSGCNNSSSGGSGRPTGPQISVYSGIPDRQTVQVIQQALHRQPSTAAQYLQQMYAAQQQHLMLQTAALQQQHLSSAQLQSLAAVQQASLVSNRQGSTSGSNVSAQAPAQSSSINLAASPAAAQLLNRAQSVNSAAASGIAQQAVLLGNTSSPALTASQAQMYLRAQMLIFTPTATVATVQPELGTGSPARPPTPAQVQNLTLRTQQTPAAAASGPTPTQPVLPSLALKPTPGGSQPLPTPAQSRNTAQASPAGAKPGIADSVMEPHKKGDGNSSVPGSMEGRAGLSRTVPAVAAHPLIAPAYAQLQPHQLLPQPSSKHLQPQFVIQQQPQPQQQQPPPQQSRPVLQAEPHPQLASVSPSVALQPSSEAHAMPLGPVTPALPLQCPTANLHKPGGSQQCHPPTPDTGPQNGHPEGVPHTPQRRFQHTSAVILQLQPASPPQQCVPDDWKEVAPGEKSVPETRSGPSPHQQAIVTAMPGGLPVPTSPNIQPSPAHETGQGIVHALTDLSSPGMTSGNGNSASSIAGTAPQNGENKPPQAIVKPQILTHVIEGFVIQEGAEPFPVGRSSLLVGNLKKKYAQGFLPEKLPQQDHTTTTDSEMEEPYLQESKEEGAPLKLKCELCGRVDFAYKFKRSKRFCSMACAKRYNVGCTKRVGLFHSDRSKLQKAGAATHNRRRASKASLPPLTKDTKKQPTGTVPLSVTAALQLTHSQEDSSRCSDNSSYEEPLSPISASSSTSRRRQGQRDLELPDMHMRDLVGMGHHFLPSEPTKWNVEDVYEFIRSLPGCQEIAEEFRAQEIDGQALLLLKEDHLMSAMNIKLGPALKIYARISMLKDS
# UniProt Q96IV0: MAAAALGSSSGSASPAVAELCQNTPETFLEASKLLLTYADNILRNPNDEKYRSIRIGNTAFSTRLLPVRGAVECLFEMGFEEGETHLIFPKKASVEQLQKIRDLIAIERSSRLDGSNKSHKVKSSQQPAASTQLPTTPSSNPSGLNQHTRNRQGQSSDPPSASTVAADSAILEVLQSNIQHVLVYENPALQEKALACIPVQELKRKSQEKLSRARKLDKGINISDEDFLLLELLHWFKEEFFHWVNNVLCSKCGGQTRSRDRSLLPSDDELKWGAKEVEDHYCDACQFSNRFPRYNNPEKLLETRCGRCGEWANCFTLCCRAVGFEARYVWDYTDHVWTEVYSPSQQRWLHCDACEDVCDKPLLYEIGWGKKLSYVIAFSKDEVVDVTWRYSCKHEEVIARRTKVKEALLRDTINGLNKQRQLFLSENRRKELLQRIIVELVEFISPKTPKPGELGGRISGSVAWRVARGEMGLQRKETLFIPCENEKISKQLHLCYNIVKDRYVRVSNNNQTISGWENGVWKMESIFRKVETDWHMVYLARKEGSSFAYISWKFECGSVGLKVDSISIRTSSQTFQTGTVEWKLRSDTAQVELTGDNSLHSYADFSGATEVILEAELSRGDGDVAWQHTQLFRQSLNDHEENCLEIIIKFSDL
# UniProt Q14978: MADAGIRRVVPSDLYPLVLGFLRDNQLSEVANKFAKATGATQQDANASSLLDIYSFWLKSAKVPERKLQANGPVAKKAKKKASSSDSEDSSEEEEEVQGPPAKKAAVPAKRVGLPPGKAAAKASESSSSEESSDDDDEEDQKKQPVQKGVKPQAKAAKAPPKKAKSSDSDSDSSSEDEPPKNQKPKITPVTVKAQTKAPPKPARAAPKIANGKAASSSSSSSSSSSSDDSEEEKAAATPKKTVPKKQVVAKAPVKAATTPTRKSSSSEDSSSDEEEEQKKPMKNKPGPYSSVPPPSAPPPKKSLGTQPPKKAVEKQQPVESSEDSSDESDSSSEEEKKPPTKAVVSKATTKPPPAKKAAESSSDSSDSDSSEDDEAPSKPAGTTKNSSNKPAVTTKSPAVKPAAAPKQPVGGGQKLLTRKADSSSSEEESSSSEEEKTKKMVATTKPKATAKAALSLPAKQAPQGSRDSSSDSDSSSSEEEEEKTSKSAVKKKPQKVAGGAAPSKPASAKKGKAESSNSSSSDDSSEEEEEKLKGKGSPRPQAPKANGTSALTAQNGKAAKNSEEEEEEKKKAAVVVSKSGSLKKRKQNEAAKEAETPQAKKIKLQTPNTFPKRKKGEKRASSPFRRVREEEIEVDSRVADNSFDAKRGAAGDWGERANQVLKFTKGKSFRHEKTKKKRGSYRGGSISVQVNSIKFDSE
# UniProt Q7Z3B3: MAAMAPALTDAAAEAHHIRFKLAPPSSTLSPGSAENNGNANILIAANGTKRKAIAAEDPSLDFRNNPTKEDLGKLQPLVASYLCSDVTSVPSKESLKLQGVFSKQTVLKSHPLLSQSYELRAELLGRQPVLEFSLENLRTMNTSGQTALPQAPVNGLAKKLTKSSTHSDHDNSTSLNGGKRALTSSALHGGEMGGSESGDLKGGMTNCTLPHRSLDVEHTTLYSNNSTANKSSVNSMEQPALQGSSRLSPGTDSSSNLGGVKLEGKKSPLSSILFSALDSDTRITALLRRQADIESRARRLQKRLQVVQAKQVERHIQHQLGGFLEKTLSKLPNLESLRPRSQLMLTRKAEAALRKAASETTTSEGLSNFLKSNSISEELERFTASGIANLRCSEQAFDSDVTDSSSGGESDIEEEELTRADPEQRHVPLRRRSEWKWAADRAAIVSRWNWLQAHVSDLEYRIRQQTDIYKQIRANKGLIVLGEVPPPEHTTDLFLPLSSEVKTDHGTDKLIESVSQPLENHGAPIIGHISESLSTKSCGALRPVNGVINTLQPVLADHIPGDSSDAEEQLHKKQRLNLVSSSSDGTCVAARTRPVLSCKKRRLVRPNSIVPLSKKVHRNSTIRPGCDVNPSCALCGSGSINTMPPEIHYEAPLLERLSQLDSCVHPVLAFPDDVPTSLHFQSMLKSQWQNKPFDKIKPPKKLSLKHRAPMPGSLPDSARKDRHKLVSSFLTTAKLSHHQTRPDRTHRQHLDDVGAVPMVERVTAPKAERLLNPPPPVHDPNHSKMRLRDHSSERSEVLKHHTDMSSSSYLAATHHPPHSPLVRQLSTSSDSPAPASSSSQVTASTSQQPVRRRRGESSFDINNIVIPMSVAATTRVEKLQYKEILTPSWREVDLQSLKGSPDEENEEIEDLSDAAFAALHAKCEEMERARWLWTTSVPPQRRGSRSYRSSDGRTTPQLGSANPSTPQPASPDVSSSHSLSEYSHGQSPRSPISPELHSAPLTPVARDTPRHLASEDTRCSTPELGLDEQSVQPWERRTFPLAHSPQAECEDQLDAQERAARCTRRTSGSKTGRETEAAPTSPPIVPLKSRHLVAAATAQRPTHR
# UniProt A2RU67: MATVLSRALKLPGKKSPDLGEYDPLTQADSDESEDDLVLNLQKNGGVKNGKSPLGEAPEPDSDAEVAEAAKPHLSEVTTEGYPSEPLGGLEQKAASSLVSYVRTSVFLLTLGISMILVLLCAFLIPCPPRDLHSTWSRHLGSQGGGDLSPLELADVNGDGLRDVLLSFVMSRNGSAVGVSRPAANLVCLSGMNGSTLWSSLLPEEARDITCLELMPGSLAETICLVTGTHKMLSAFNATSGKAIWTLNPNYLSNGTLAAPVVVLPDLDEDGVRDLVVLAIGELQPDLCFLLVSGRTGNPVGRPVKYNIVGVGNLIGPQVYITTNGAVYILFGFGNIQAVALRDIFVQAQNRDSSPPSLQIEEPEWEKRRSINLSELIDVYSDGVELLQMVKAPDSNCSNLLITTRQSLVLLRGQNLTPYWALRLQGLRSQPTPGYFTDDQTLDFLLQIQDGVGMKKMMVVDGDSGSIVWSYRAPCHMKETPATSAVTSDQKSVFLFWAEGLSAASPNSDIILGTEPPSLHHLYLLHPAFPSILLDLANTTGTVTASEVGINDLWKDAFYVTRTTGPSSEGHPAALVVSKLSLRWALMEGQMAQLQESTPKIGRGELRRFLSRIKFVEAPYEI
# ± gives the standard deviation of the averaged measurements. Some of the results follow.
# Compound: Nc1nc2c(ncn2[C@@H]2O[C@H](COP(=O)(O)OP(=O)(O)OP(=O)(O)O)[C@@H](O)[C@H]2O)c(=O)[nH]1 [guanosine triphosphate]
# Experiment: NP40-soluble protein abundance relative to vehicle (solubility fold change) (ratio); higher = more soluble protein in presence of GTP
# Description: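 Solubility proteome profiling in Jurkat crude lysate. Lysate was treated with Mg-GTP (0.1-10 mM) for 10 min at room temperature and 3 min at 37 °C, then solubilised with 0.8% NP40 and benzonase, followed by ultracentrifugation. Proteins were quantified by TMT10 LC-MS/MS; the value is the NP40-soluble abundance relative to the NP40-processed vehicle, from 3 independent experiments.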
Target,NP40-soluble protein abundance (concentration: 0.1mM),NP40-soluble protein abundance (concentration: 0.5mM),NP40-soluble protein abundance (concentration: 1mM),NP40-soluble protein abundance (concentration: 2mM),NP40-soluble protein abundance (concentration: 4mM),NP40-soluble protein abundance (concentration: 6mM),NP40-soluble protein abundance (concentration: 8mM),NP40-soluble protein abundance (concentration: 10mM)
A0A0A0MSI2|B3KPJ4 and related entries (UniProt Q8IXK0),0.973 ± 0.032,0.99 ± 0.071,1.09 ± 0.042,1.14 ± 0.03,1.28 ± 0.031,1.34 ± 0.039,1.43 ± 0.043,1.53 ± 0.047
A0A0C4DFP4|Q96IV0 and related entries (UniProt Q96IV0),0.979 ± 0.033,1.02 ± 0.013,0.93 ± 0.01,0.937 ± 0.037,0.949 ± 0.028,0.943 ± 0.057,0.8946 ± 0.0062,0.888 ± 0.032
A0A0A0MRM9|Q14978 and related entries (UniProt Q14978),0.867 ± 0.045,0.851 ± 0.12,0.956 ± 0.12,1.01 ± 0.16,1.18 ± 0.14,1.35 ± 0.15,1.44 ± 0.079,1.64 ± 0.13
A0A0G2JNB1|A0A0G2JNT7|A0A0G2JQF5|A0A0J9YVS1|I3L4J3 and related entries (UniProt Q7Z3B3),1.08 ± 0.076,1.03 ± 0.06,1.09 ± 0.13,1.06 ± 0.054,1.09 ± 0.084,1.07 ± 0.07,1.11 ± 0.018,1.07 ± 0.06
UniProt A2RU67,0.932 ± 0.039,0.838 ± 0.034,0.926 ± 0.079,0.787 ± 0.2,0.823 ± 0.043,0.772 ± 0.083,0.9553 ± 0.0041,0.816 ± 0.2
